Reference: PubChem BioAssay AID1688 (National Center for Advancing Translational Sciences (NCATS), 2009)
Screen size: about 220,000 compounds; about 2,400 (1.1%) were called active. Inconclusive results, whose numbers are uncertain, are shown with a selection of clear calls. The call rests on the fitted dose curve; in most records, active means well fitted inhibition curve with a large enough effect; inconclusive means small, poorly fitted or top-dose-only effect, or effect the other way; inactive means no such curve, though single readings can be large or run the other way. Where the call is inconclusive, the potency comes from a doubtful curve fit.

assay: qHTS Multiplex Assay to Identify Dual Action Probes in a Cell Model of Huntington: Aggregate Formation (GFP); details: PC12 HttQ103-GFP aggregates, Acumen cytometry, 40 h; activity change, negative = inhibition: at 46.1 µM (top of the series) unless noted; further: nearly all actives have a fitted effect of over 60% in size
How it was run: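 Aggregate formation scored by laser-scanning cytometer (488 excitation, 500–530 emission) in lysed PC12 cells expressing Q103-GFP after 100 nM tebufenozide induction; library tested in dose series, with ATPLite reagent added in the multiplex.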
On the % scale 0 is the no-effect control and ±100 the full control effect; potency means the concentration at half of the fitted maximal effect.

**Q.** Which Potency does the source give for O=C(COC(=O)CC1CC2CCC1C2)NC(=O)NCc1ccco1 (stereo unspecified) here?
**A.** inconclusive: 10 µM [activator, partial curve]

**Q.** Which Potency does the source give for Cc1ccc(NC(=O)CN2C(=O)S/C(=C/c3ccc(-c4cc(C(=O)O)ccc4C)o3)C2=O)cc1C here?
**A.** inactive

**Q.** Which Potency does the source give for CN(c1ccccc1)S(=O)(=O)c1cccc(C(=O)NNC(=O)c2ccccc2)c1 here?
**A.** inconclusive: 12.6 µM [inhibitor, partial curve, poor fit]

**Q.** Which Potency does the source give for C=CCN1C(C(=O)c2ccccc2)=C(OC(=O)COc2ccccc2)c2ccccc2S1(=O)=O here?
**A.** active: 12.6 µM

**Q.** With O=C(NCC(F)(F)F)Nc1nnc(C(F)(F)F)s1 as the molecule, how does the Potency read?
**A.** inconclusive: 22.4 µM [inhibitor, single point]

**Q.** Which Potency does the source give for Nc1ncnc(Sc2ccccc2)c1[N+](=O)[O-] here?
**A.** inactive

**Q.** For CN(C)c1ccnc(Oc2ccccc2)c1C#N, which Potency is on record?
**A.** inactive

**Q.** Which Potency does the source give for CCN1/C(=C/c2sc(-c3ccccc3C)c[n+]2C)Sc2ccccc21 here?
**A.** active: 2.24 µM

**Q.** With COc1ccc(-c2nc(NC(=O)CSc3nnc(C)s3)ns2)cc1 as the molecule, how does the Potency read?
**A.** active: 11.2 µM

**Q.** For CCc1ccc(NC(=O)c2cc(C(C)C)on2)cc1, which Potency is on record?
**A.** inactive

**Q.** With Clc1ccccc1CSc1cc2c(nn1)-c1ccccc1CC2 as the molecule, how does the Potency read?
**A.** inconclusive: 35.5 µM [inhibitor, single point]

**Q.** For O=[N+]([O-])c1ccc(-n2nnnc2-c2ccccc2)c([N+](=O)[O-])c1, which Potency is on record?
**A.** inconclusive: 35.5 µM [inhibitor, single point]

**Q.** With CCC(O)(CC)C(=O)N/N=C/c1cc(Br)cc(Br)c1O as the molecule, how does the activity change, negative = inhibition read?
**A.** inactive: -18.7% [at 9.22 µM]

**Q.** For COc1cc(C(C)=O)ccc1OCC(=O)c1cc(C)n(C2CC2)c1C, which Potency is on record?
**A.** inconclusive: 7.94 µM [activator, partial curve]

**Q.** Which Potency does the source give for CC(=O)CCS(=O)(=O)c1ccc(C)c(C)c1 here?
**A.** inconclusive: 35.5 µM [inhibitor, single point]

**Q.** Which Potency does the source give for CN(C)c1ccc2c(c1)OC(N)=C(C#N)C2c1cccc(F)c1 (stereo unspecified) here?
**A.** inconclusive: 11.2 µM [activator, single point]

**Q.** With Nc1nonc1C(=O)NCCN=Cc1cc(Cc2ccccc2)cc(Br)c1O as the molecule, how does the Potency read?
**A.** inconclusive: 12.6 µM [inhibitor, single point]

**Q.** For COc1cccc(-n2nnnc2S(C)(=O)=O)c1, which Potency is on record?
**A.** active: 2.51 µM

**Q.** With O=S(=O)(c1ccc(NC(=S)NCCC(c2ccccc2)c2ccccc2)cc1)N1CCOCC1 as the molecule, how does the Potency read?
**A.** inconclusive: 35.5 µM [inhibitor, single point]

**Q.** For CCNC(=S)Nc1scc(-c2ccccc2)c1C(=O)OCC, which Potency is on record?
**A.** active: 14.1 µM

**Q.** With CC1(C)N=C(SCC(=O)Nc2ccc(Cl)cc2)C(c2ccc(Cl)cc2)=N1 as the molecule, how does the Potency read?
**A.** inconclusive: 20 µM [inhibitor, single point]

**Q.** Which Potency does the source give for COc1ccc(NS(=O)(=O)c2cccc(-c3nnc(-c4ccccc4)o3)c2)cc1 here?
**A.** inconclusive: 15.8 µM [inhibitor, single point]

**Q.** Which Potency does the source give for CC(=O)NC1C(=O)N(CC(C)C)c2ccccc21 (stereo unspecified) here?
**A.** inactive

**Q.** For Oc1ccccc1N=Nc1nc(-c2ccccc2)c(-c2ccccc2)[nH]1, which Potency is on record?
**A.** inconclusive: 0.447 µM [inhibitor, full curve]

**Q.** With CC1Cc2ccccc2N1C(=O)c1cc2sccc2n1Cc1ccccc1 (stereo unspecified) as the molecule, how does the Potency read?
**A.** inconclusive: 10 µM [inhibitor, partial curve]

**Q.** For O=S(=O)(CCc1ccccc1)/N=C/c1cccs1, which Potency is on record?
**A.** inactive

**Q.** Which Potency does the source give for CC(C)C(=O)Nc1ccc(C(=O)N2CCCCCC2)cc1 here?
**A.** inactive

**Q.** With Cc1cccc(N2C(=O)c3cccc4c(N(C)CCO)ccc(c34)C2=O)c1 as the molecule, how does the Potency read?
**A.** inconclusive: 11.2 µM [inhibitor, partial curve]

**Q.** For Cc1ccc(-n2c3c(cc(C(=O)Nc4cccc(C)n4)c2=O)C(=O)CCC3)cc1, which Potency is on record?
**A.** inconclusive: 0.282 µM [inhibitor, full curve]

**Q.** For O=C(CSc1nncs1)Nc1ccc2c(c1)OCCO2, which activity change, negative = inhibition is on record?
**A.** inactive: 29.4% [at 1.84 µM]

**Q.** With CCC(C)[C@@H](NC(=O)OC(C)(C)C)c1nnc(S(=O)(=O)Cc2cccc(C)c2)o1 (stereo partly specified) as the molecule, how does the Potency read?
**A.** inconclusive: 35.5 µM [inhibitor, single point]

**Q.** For CCc1nnc(NC(=O)CSc2nnc(Cc3cccn3C)n2CCOC)s1, which Potency is on record?
**A.** inactive

**Q.** With CCOc1ccc(C(=O)NCCc2ccc3c(c2)OCCO3)cc1 as the molecule, how does the Potency read?
**A.** active: 5.01 µM

**Q.** For O=C(CCCC(=O)OCC(=O)c1cccs1)Nc1ccc(Oc2ccccc2)cc1, which Potency is on record?
**A.** inactive

**Q.** With CC(C)c1ccc(OCC(O)Cn2cnc3ccccc32)cc1 (stereo unspecified) as the molecule, how does the Potency read?
**A.** inconclusive: 11.2 µM [inhibitor, partial curve]

**Q.** For O=C(O)CNC(=O)C(Cc1ccccc1)NC(=O)OCc1ccccc1 (stereo unspecified), which Potency is on record?
**A.** inactive

**Q.** Which Potency does the source give for Cc1ccc(OCc2n[nH]c(=S)n2C2CCCCC2)cc1 here?
**A.** inactive

**Q.** For O=C(Nc1nnc(C(F)(F)F)s1)C1COc2ccccc2O1 (stereo unspecified), which Potency is on record?
**A.** active: 25.1 µM

**Q.** For CCN(c1ccc(OC)cc1)c1ncnc2nc[nH]c12, which Potency is on record?
**A.** active: 5.62 µM

**Q.** For O=[N+]([O-])c1ccc(Nc2c3ccccc3nc3ccccc23)cc1, which Potency is on record?
**A.** inconclusive: 22.4 µM [inhibitor, single point]

**Q.** With Nc1ccc(S(=O)(=O)Nc2nccc(/C=C/c3ccc(Br)s3)n2)cc1 as the molecule, how does the Potency read?
**A.** inconclusive: 0.501 µM [activator, full curve, poor fit]

**Q.** With CC1CCCN(C(=O)C2CCN(CC(C)c3ccccc3)CC2)C1 (stereo unspecified) as the molecule, how does the Potency read?
**A.** inactive

**Q.** Which Potency does the source give for Cn1ncc(C#N)c1/N=C/N1CCCCC1 here?
**A.** inconclusive: 14.1 µM [inhibitor, partial curve]

**Q.** For CSc1cccc(NC(=O)/C=C/c2cccc(Cl)c2)c1, which Potency is on record?
**A.** active: 15.8 µM

**Q.** Which Potency does the source give for O=c1[nH]c(=O)n(C2C[C@H](O)[C@@H](CO)O2)cc1C(F)(F)F (stereo partly specified) here?
**A.** inactive

**Q.** Which Potency does the source give for ClCc1nnc(-c2cc3c(s2)CCCC3)o1 here?
**A.** inconclusive: 35.5 µM [inhibitor, single point]

**Q.** For C=CCOC(=O)C1=C(C)N=C2SCCC(=O)N2C1/C=C/c1ccccc1 (stereo unspecified), which Potency is on record?
**A.** inactive

**Q.** With Cc1ccc(C(=O)C(C)N(C(=O)c2ccc(Cl)cc2Cl)N2C(=O)CCCC2=O)cc1 (stereo unspecified) as the molecule, how does the Potency read?
**A.** active: 11.2 µM

**Q.** For O=C(Cc1ccccc1)NC1(Cc2ccc(O)cc2)CCCCC1, which Potency is on record?
**A.** inconclusive: 35.5 µM [inhibitor, single point]

**Q.** Which Potency does the source give for CC(=O)Oc1cc(C(F)(F)F)ccc1C(=O)O here?
**A.** inactive

**Q.** Which Potency does the source give for COc1ccc(-c2c(C#N)c(N)nc3c2CCc2ccccc2-3)cc1OC here?
**A.** inconclusive: 20 µM [inhibitor, partial curve]
